This is an account of results in publication PMC6746817.

Protein sequences, listed by entry. Tags and fused reporters are not part of them.
UniProt P10275: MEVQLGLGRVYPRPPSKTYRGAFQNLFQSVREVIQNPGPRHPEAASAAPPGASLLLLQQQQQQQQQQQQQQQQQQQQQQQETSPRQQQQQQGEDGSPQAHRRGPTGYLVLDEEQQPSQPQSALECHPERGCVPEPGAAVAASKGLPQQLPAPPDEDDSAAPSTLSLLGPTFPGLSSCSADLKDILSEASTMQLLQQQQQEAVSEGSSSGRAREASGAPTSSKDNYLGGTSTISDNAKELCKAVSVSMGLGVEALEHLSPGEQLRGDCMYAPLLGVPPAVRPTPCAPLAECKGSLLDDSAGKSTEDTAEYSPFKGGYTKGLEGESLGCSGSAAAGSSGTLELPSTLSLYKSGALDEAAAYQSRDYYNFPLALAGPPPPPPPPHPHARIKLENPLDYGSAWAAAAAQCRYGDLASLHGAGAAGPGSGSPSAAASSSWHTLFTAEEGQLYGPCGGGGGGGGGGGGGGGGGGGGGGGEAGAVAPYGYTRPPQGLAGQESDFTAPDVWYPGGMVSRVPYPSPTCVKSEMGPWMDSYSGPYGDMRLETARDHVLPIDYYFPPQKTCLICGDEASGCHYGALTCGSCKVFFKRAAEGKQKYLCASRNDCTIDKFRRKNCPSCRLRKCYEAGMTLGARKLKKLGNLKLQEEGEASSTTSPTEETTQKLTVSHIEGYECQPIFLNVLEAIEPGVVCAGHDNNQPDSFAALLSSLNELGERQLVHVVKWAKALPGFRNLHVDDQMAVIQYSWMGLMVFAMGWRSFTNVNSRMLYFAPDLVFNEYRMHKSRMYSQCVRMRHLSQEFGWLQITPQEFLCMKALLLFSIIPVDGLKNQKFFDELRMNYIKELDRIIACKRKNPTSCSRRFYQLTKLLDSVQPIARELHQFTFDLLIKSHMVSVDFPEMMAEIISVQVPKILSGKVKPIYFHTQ
UniProt P25440: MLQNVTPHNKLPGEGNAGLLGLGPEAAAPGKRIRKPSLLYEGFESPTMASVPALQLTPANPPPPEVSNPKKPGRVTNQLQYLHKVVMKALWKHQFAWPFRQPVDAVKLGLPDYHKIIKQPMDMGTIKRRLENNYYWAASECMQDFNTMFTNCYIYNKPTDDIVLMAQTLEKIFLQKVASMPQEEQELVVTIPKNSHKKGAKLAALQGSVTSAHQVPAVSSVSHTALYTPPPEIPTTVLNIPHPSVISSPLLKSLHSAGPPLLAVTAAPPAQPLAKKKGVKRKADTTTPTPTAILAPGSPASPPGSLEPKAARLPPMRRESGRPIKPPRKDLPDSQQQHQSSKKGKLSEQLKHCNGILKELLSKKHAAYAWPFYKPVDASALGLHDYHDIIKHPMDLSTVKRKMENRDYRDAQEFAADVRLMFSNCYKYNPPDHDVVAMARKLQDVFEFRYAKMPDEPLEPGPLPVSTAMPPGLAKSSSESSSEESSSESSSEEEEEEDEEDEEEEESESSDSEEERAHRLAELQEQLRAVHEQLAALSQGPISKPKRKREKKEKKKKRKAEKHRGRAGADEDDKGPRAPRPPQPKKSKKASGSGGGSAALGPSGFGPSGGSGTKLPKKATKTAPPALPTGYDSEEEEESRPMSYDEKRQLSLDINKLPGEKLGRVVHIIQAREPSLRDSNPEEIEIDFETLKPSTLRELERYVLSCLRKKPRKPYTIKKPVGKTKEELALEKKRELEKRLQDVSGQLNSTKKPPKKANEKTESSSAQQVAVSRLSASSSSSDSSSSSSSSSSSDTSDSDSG

These are yes or no findings as the source states them, for the method shown. Binding seen in cells or lysates may run through a third protein. Some binding calls cover weakened binding; strength is not graded here.

Test [1] deals with T1, ATPase-family AAA-domain-containing 2 protein (human (endogenous in MDA-MB-231 and MDA-MB-453)) (UniProt Q6PL18).
T1 sequence: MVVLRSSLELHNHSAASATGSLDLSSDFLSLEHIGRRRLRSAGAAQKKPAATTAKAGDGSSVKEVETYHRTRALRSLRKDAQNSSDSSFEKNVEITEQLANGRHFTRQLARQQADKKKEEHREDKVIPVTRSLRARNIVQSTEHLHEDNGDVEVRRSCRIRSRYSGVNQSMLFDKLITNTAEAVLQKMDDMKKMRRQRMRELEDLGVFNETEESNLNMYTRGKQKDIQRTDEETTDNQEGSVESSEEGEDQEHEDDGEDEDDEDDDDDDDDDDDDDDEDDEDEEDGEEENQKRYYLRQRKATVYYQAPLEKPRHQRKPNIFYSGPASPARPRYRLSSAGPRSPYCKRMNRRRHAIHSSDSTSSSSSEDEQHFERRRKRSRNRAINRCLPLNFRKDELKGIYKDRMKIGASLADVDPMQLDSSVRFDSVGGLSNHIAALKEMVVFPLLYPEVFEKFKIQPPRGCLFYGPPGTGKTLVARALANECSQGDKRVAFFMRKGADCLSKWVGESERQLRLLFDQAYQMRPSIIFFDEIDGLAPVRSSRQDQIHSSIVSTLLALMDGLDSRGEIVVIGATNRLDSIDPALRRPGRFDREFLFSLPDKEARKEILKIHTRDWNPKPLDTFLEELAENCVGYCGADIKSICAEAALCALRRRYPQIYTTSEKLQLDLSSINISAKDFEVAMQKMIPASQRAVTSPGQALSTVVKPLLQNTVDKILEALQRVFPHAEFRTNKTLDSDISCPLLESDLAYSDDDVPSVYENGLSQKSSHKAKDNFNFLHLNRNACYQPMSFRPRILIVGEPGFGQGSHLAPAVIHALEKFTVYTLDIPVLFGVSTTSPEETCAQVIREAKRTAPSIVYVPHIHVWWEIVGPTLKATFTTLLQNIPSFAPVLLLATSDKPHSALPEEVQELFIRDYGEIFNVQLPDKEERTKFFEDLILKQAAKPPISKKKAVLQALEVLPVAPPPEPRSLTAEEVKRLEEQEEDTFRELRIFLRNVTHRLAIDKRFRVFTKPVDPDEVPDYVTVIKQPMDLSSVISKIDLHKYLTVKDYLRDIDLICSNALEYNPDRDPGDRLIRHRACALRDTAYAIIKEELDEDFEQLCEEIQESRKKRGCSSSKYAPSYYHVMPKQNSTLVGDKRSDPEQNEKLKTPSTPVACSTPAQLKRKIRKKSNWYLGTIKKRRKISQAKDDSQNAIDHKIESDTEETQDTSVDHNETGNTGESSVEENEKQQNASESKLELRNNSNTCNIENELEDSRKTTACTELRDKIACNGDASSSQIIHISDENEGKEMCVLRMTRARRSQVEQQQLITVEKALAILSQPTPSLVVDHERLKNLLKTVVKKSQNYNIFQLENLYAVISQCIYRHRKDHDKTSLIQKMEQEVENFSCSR
As to the kind of experiment: co-IP; nuclear proteins of MDA-MB-231 and MDA-MB-453 cells treated with DMSO (vehicle) (AR precipitation also after 0.5 uM JQ1 for 72 hours, interactions not affected); extracts (0.1 mg) incubated overnight at 4 °C with mouse antibody against AR or ATAD2, Protein A/G Sepharose beads, washed 3 times with lysis buffer, immunoblot. On the technique in general: Immunoblotting shows a protein as a band on a membrane.

In test [2] the target is T1, ATPase-family AAA-domain-containing 2 protein (human (endogenous in MDA-MB-231 and MDA-MB-453)). As to the kind of experiment: condition: only cells treated with 0.5 μM JQ1 for 72 hours; co-IP; nuclear proteins of MDA-MB-231 and MDA-MB-453 cells treated with 0.5 uM JQ1 for 72 hours; precipitation with antibody against ATAD2, Protein A/G Sepharose beads, immunoblot.
Test [3] addresses androgen receptor (human (endogenous in MDA-MB-231 and MDA-MB-453)) (UniProt P10275). As to the kind of experiment: co-IP; nuclear proteins of MDA-MB-231 and MDA-MB-453 cells treated with DMSO (vehicle) (AR precipitation also after 0.5 uM JQ1 for 72 hours, interactions not affected); extracts (0.1 mg) incubated overnight at 4 °C with mouse antibody against AR or ATAD2, Protein A/G Sepharose beads, washed 3 times with lysis buffer, immunoblot.

As for “androgen receptor (from UniProt P10275 1-920)”, the figures for the binding entry in test [1] and in test [2] were “binds” and “no binding”, respectively.
As to “BRD-containing protein 2 (from UniProt P25440 1-801)”, the binding entry in test [1] was “binds weakly”; in test [3], “binds”; in test [2], “no binding”.
